Reference: PubChem BioAssay AID504467 (National Center for Advancing Translational Sciences (NCATS), 2011)
Where “and” joins values, the source holds several entries; their conditions need not be identical. Identical values can stand only once. Hit rate of the full screen: of about 330,000 compounds, about 7,700 (2.3%) were called active. Inconclusive means that the source gave no clear call. Such entries were picked first, then a sample of the others. Calls come from the whole dose curve; as a rule, active = well fitted inhibition curve with a large enough effect; inconclusive = small, poorly fitted or top-dose-only effect, or effect the other way; inactive = flat fitted curve, though single readings scatter. A potency beside an inconclusive call is a rough fit, not a confirmed value.

assay: qHTS screen for small molecules that inhibit ELG1-dependent DNA repair in human embryonic kidney (HEK293T) cells expressing luciferase-tagged ELG1; settings: HEK293T ELG1-luciferase reporter, luminescence, 16 h, DNA damage induced by 5-fluorouridine; activity change, negative = inhibition: at 46.1 µM (top of the series); note: nearly all actives have a fitted effect of over 55% in size
Procedure, shortened: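 Quantitative HTS, concentration-response format. 2,000 cells/well co-treated with 5-fluorouridine and compound, 16 hr in 5% CO2 at 37 °C; ONE-Glo luminescence read after 30 min.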
% is set by controls: 0 for no effect and ±100 for the full control effect; potency is the fitted concentration of half-maximal effect.

Structure (SMILES) | Potency | activity change, negative = inhibition
COc1cc(OC)c(C(=O)Nc2cccc3ccccc23)cc1OC | inconclusive: 29.1 µM [inhibitor, single point] | 
Cc1onc(-c2ccccc2Cl)c1C(=O)c1ccccc1 | inconclusive: 18.3 µM [inhibitor, single point] | 
COc1cc(/C=C/C(=O)Nc2nnc(CC(C)(C)C)s2)cc(OC)c1OC |  | inactive: 27.5%
Cc1ccc(N(CC(=O)NC2CCCC2)C(=O)CNC(=O)c2cccs2)cc1C |  | inactive: 2.02%
Cc1nc2ccccc2nc1OCC(=O)N1CCN(c2ccccc2)CC1 | inconclusive: 14.6 µM [inhibitor, partial curve, poor fit] | 
O=C(Nc1ccc(F)cc1)c1nsc(Cl)c1Cl | inconclusive: 16.4 µM [activator, partial curve] | 
COc1ccc(Nc2nc3ccccc3n3cnnc23)cc1 | inconclusive: 20.6 µM [inhibitor, single point] | 
CN(C)/C=C/C(=O)c1ccc(C(F)(F)F)cc1F | inconclusive: 23.1 µM [activator, partial curve] | 
CC(=O)c1c(C)[nH]c(C(=O)OCC(=O)Nc2cccnc2Cl)c1C | inconclusive: 13 µM [inhibitor, partial curve] | 
COc1ccc(C(=O)NCC(=O)OCC(=O)c2ccc3c(c2)NC(=O)CO3)cc1 | inconclusive: 0.231 µM [inhibitor, single point] | 
C[N+]1(CCN2C(=O)C3CC=C(Cl)CC3C2=O)CCOCC1 (stereo not drawn) |  | inactive: 16.1%
Oc1ccccc1CN(Cc1ccco1)CC(O)COCc1ccc(Cl)cc1 (stereo not drawn) | inconclusive: 23.1 µM [inhibitor, single point] | 
CC(C)Cn1cnc2c(c1=O)c1nc3ccccc3nc1n2Cc1ccc2c(c1)OCO2 |  | inactive: 1.38%
COC(=O)C1=C(Cn2cnc3ccccc32)NC(=O)NC1c1cc(C)ccc1C (stereo not drawn) | inconclusive: 13 µM [inhibitor, partial curve] | 
O=C(Nc1ccncc1)c1c(Cl)cccc1Cl | inconclusive: 8.2 µM [inhibitor, partial curve] | 
Cc1ccc(-c2cn(-c3ccccc3)c3[n+]2CCCS3)cc1 | inconclusive: 29.1 µM [inhibitor, single point] and inconclusive: 9.2 µM [inhibitor, partial curve] | 
CCCCn1c(Oc2ccc(C(=O)OC)cc2)nc2c1c(=O)n(C)c(=O)n2C | active: 20.6 µM | 
CC(=O)c1cccc(NC(=S)NC2CCCCC2)c1 |  | inactive: -1.32%
COc1ccc2c(c1[N+](=O)[O-])CCC/C2=N/OC(=O)c1cccc2ccccc12 |  | inactive: -2.77%
O=C(CN1CCCC1)Nc1ccc(-c2nc3cc(NC(=O)CN4CCCC4)ccc3o2)cc1 | inconclusive: 20.6 µM [activator, partial curve, poor fit] | 
Cc1noc2ncnc(Oc3ccc(C(C)(C)C)cc3)c12 |  | inactive: 0.782%
CCOc1ccc(NC(=O)C2CCCN(S(C)(=O)=O)C2)cc1 (stereo not drawn) |  | inactive: 2.58%
CC(C)(C)OC(=O)NCCCC[C@H](NC(=O)c1[nH]cnc1C(=O)Nc1ccc(Cl)cc1)C(=O)OC(C)(C)C | inconclusive: 23.1 µM [inhibitor, single point] | 

Structure (SMILES) | Potency | activity change, negative = inhibition
CCN(CC)S(=O)(=O)c1ccc(-n2cnc3cc(C)c(C)cc32)nc1 |  | inactive: 8.86%
CC(=O)c1ccc(NS(=O)(=O)c2cccc(C)c2)cc1 | inconclusive: 14.6 µM [activator, partial curve, poor fit] | 
CC(C)c1ccc(NC(=O)C2CC3CCC2C3)cc1 (stereo not drawn) | inconclusive: 9.2 µM [activator, partial curve] | 
CCCOc1ccccc1OCC(=O)N1CCN(S(=O)(=O)c2ccc(Cl)cc2)CC1 | inconclusive: 2.91 µM [inhibitor, partial curve, poor fit] | 
CCC1CCCCN1C(=O)COc1cccc2c1CCN(C)C2=O (stereo not drawn) | inconclusive: 29.1 µM [inhibitor, single point] | 
CCN(CC)S(=O)(=O)c1ccc(N2CCOCC2)c(NC(=O)c2ccco2)c1 | inconclusive: 18.3 µM [inhibitor, single point] | 
Cc1cccc(NC(=O)CCSc2nc(C)cc(C)n2)c1 |  | inactive: 0.801%
COc1ccc(Nc2oc(COc3ccc(Cl)cc3)nc2C#N)cc1 | inconclusive: 16.4 µM [inhibitor, partial curve, poor fit] | 
Cn1c(=O)[nH]c(=O)c2c1nc(NCc1ccco1)n2Cc1ccccc1Cl |  | inactive: 5.05%
Cn1c(O)c(N=Nc2nc(-c3ccccc3)cs2)c2ccccc21 | inconclusive: 25.9 µM [activator, partial curve, poor fit] | 
Cc1ccc2cc(CCNC(=O)c3ccco3)c(=O)[nH]c2c1 | inconclusive: 16.4 µM [activator, partial curve] | 
COc1ccc(NC(=O)Cn2c3ccc(OC)cc3c3nc4n(c(=O)c32)CCS4)cc1 | inconclusive: 10.3 µM [activator, partial curve] | 
O=C(c1n[nH]c2ccccc12)N1CCN(S(=O)(=O)c2ccc3ccccc3c2)CC1 | inconclusive: 23.1 µM [inhibitor, single point] | 
Cc1cc(OCC(=O)Nc2ccc(S(=O)(=O)NC3=NCCCCC3)cc2)c(C(C)C)cc1Cl | inconclusive: 9.2 µM [inhibitor, partial curve] | 
CC1=NN(c2ccccc2)C(=O)C1C=Nc1ccccc1O (stereo not drawn) | inconclusive: 29.1 µM [inhibitor, single point] | 
COC(=O)Nc1ccc(N2CCOCC2)c(S(=O)(=O)N2CCOCC2)c1 |  | inactive: 11.1%
COc1ccc(Cl)cc1NCC(=O)Nc1ccc(OC)c(S(=O)(=O)N2CCCCC2)c1 | inconclusive: 25.9 µM [inhibitor, single point] | 
COc1ccc2nc(NC(=O)c3cccc(S(=O)(=O)N4CCOCC4)c3)sc2c1 | inconclusive: 29.1 µM [inhibitor, single point] | 
CCOc1ccccc1CNC(=O)C1Cc2cc(S(=O)(=O)N3CCCCC3)ccc2N1C(C)=O (stereo not drawn) |  | inactive: -7.65%
O=C(NCc1ccco1)c1ccc(NC(=O)C2COc3ccccc3O2)cc1 (stereo not drawn) | inconclusive: 29.1 µM [inhibitor, single point] | 
Cc1cccn2cc(COc3ccc(-c4ccccc4)cc3)nc12 | inconclusive: 16.4 µM [activator, partial curve] | 
Cc1cccc(-c2noc(-c3ccoc3C)n2)c1 | inconclusive: 20.6 µM [activator, partial curve] | 
COc1cccc(C(=O)Nc2nnc(SCC(=O)NC3CCCC3)s2)c1 | inconclusive: 14.6 µM [activator, partial curve] | 

Structure (SMILES) | Potency | activity change, negative = inhibition
CCc1ccccc1NC(=O)C1COc2ccccc2O1 (stereo not drawn) | inconclusive: 2 µM [inhibitor, single point] | 
COc1cccc(CN2CCN(Cc3cc(OC)c(OC)cc3[N+](=O)[O-])CC2)c1 | inconclusive: 10.3 µM [inhibitor, partial curve] | 
Cc1c(C(=O)N2CCC(n3nccc3NC(=O)C3CC3)CC2)[nH]c2ccc(Cl)cc12 |  | inactive: -4.45%
COc1ccc(Cc2nc(-c3cccs3)no2)cc1 | inconclusive: 16.4 µM [activator, partial curve] | 
CCc1cc2c(SCC(=O)C(C#N)=C3N(C)c4ccccc4N3C)ncnc2s1 | inconclusive: 20.6 µM [inhibitor, single point] | 
CN1C(=O)C(C)(C)c2cc(S(=O)(=O)N3CCC(C(=O)Nc4ccc(Cl)cc4)CC3)ccc21 |  | inactive: 4.73%
Cc1ccccc1NC(=O)C1Cc2ccccc2CN1C(=O)c1ccco1 (stereo not drawn) | inconclusive: 20.6 µM [activator, single point] | 
CCC(C)(C)c1nnc(NC(=O)c2cccc([N+](=O)[O-])c2)s1 | inconclusive: 29.1 µM [activator, single point] | 
CC(C)Oc1ccc(C(=O)OC(C)C(=O)Nc2nc(-c3cccc([N+](=O)[O-])c3)cs2)cc1 (stereo not drawn) | active: 16.4 µM | 
O=C(CCN1C(=O)c2ccccc2S1(=O)=O)Nc1ccc(C(=O)O)cc1 | inconclusive: 16.4 µM [activator, partial curve, poor fit] | 
COc1ccccc1N1CCN(C(=O)Oc2ccccc2)CC1 | inconclusive: 14.6 µM [activator, partial curve, poor fit] | 
O=C(COC(=O)CNC(=O)c1ccccc1)Nc1ccc(Cl)cn1 |  | inactive: -13.3%
CCN(CCCNC(=O)Cn1ncc2c([nH]c3ccc(C)cc32)c1=O)c1ccccc1 |  | inactive: 29.2%
CCOc1ccccc1C(=O)Nc1cccc(-c2ccc(N3CCOCC3)nn2)c1 | inconclusive: 25.9 µM [inhibitor, single point] | 
Cc1ccc(/C=N/NC(=O)c2ccncc2)s1 |  | inactive: 0.636%
CCn1c(-c2ccccc2Cl)nn(CC(=O)Nc2ccc(OC)cc2)c1=S |  | inactive: -15.1%
CCn1nc(C)c(NC(=O)/C=C/c2ccc(OC)c(COc3ccc(Br)cc3)c2)c1C | active: 6.51 µM | 
Cc1cc(C)cc(NC(=O)C2C3C=CC4(O3)C2C(=O)N(CCCN(C)C)C4C(=O)NC2CCCC(C)C2C)c1 (stereo not drawn) |  | inactive: -7.81%
O=C1C(Cl)=C(Nc2ccc(O)cc2)C(=O)c2ccccc21 | inconclusive: 29.1 µM [inhibitor, single point] | 
COc1ccc(-n2ncc3c(NCc4ccccn4)ncnc32)cc1 | inconclusive: 10.3 µM [activator, partial curve] | 
CCOC(=O)c1sc2nc(C)cc(C)c2c1N | inconclusive: 18.4 µM [activator, partial curve] | 
Cc1ccc(S(=O)(=O)Nc2ccc3c(c2)C(=O)N([C@H](C)CO)C[C@H](C)[C@@H](CN(C)C(=O)Nc2ccc(C(F)(F)F)cc2)O3)cc1 | inconclusive: 32.6 µM [inhibitor, single point] | 
